For twelve compounds, survivor count and T/C results are on record in PubChem BioAssay AID248 (DTP/NCI, 2004).

The list does not hold the whole screen: it gathers tests that were run many times, whatever their T/C, doses with no T/C, and many T/C values between a quarter and a half above the control. Further doses and runs are listed elsewhere. T/C gives the treated animals as a percentage of the vehicle group. Some entries give survivors of the animals treated and no T/C: the source files T/C as zero there, which appears to mark a toxic dose or a test without result, not a measured value. Some doses without a T/C left all or most animals alive at the check, yet need not have been tolerated: the source hardly ever lists a survival T/C far under the control, and the zero likely stands for such cases as well. Counts of survivors are from the toxicity check (mostly the fifth day) where no day follows; animals may have died later. Schedule codes are those of the source, taken here to give the interval after Q, in days (D) or hours (H), and the number of doses after X. Some schedules carry Z or #; the key to these is not given. Where survival is the endpoint, this PubChem deposit counts one and a half times the control or more as active, and values a quarter to a half above the control carry no call in these data; other NCI protocols may use other cut-offs. Some doses were run more than once; the values are given in rising order. Some T/C values are followed by the survivors on the day toxicity was checked, most often the fifth; where none is given, no animal had died by that day.

The test has as its system L1210 leukemia ip in BDF1 mice, survival T/C. The experiment in a line: NCI In Vivo Anticancer Drug Screen. Data for tumor model L1210 Leukemia (intraperitoneal) in B6D2F1 (BDF1) mice. As to conditions: T/C endpoint: mean survival time, higher T/C = longer survival.
Setting [1] is: dose: 400.0 mg/kg/injection, schedule: Q04DX003 (ip), vehicle: saline with Tween-80.
[2] abbreviates: dose: 75.0 mg/kg/injection, schedule: Q01DX001 (ip), vehicle: saline.
[3] abbreviates: dose: 150.0 mg/kg/injection, schedule: Q01DX001 (ip), vehicle: saline.
Setting [4] is: dose: 300.0 mg/kg/injection, schedule: Q01DX001 (ip), vehicle: saline.

For the compound `CCCCCCCCCCCCCCCCCCNC(=O)Nc1cccc2ccccc12`, the survivor count runs as follows: (dose: 100.0 mg/kg/injection, schedule: Q01DX009 (ip), vehicle: carboxymethylcellulose (CMC)) 5 of 6; (dose: 100.0 mg/kg/injection, schedule: Q04DX002 (ip), vehicle: carboxymethylcellulose (CMC)) 6 of 6; (dose: 200.0 mg/kg/injection, schedule: Q01DX009 (ip), vehicle: carboxymethylcellulose (CMC)) 3 of 3; (dose: 400.0 mg/kg/injection, schedule: Q04DX002 (ip), vehicle: Klucel (hydroxypropylcellulose) (HPC)) 1 of 3.
Turning to `O=C(Nc1ncccn1)c1ccc(Cl)cc1Cl`, the survivor count (dose: 200.0 mg/kg/injection, schedule: Q04DX003 (ip), vehicle: saline with Tween-80) is reported as 6 of 6.
As to `O=C(NCCCCN1CC1)C(=O)NCCCCN1CC1`, the T/C reads like this: (dose: 5.5 mg/kg/injection, schedule: Q04DX003 (ip), vehicle: Klucel (hydroxypropylcellulose) (HPC)) 147 % of control; (dose: 6.0 mg/kg/injection, schedule: Q04DX003 (ip), vehicle: Klucel (hydroxypropylcellulose) (HPC)) 135 % of control; (dose: 6.25 mg/kg/injection, schedule: Q04DX003 (ip), vehicle: Klucel (hydroxypropylcellulose) (HPC)) 139 % of control; (dose: 12.0 mg/kg/injection, schedule: Q04DX003 (ip), vehicle: Klucel (hydroxypropylcellulose) (HPC)) 145 % of control; (dose: 12.5 mg/kg/injection, schedule: Q04DX003 (ip), vehicle: Klucel (hydroxypropylcellulose) (HPC)) 149 % of control; (dose: 25.0 mg/kg/injection, schedule: Q04DX003 (ip), vehicle: Klucel (hydroxypropylcellulose) (HPC)) 133 % of control. In addition, the survivor count is, setting by setting: (dose: 100.0 mg/kg/injection, schedule: Q04DX003 (ip), vehicle: Klucel (hydroxypropylcellulose) (HPC)) 0 of 6; (dose: 200.0 mg/kg/injection, schedule: Q04DX003 (ip), vehicle: Klucel (hydroxypropylcellulose) (HPC)) 0 of 6; (dose: 400.0 mg/kg/injection, schedule: Q04DX003 (ip), vehicle: Klucel (hydroxypropylcellulose) (HPC)) 0 of 6.
`O=C1c2ccccc2C(=O)N1CNc1cccc(Cl)c1`: the survivor count (dose: 400.0 mg/kg/injection, schedule: Q01DX009 (ip), vehicle: saline with Tween-80) is recorded as 1 of 3.
In the case of `Cc1cc([N+](=O)[O-])c2nnnn2c1`, the survivor count (dose: 400.0 mg/kg/injection, schedule: Q01DX001 (ip), vehicle: other) is 0 of 4.
As to `CC(=O)NC(C)(NC(=O)CCl)C(=O)O` (stereo not given), the survivor count under setting [1] is given as 5 of 6.
Turning to `Cc1ccc(S(=O)(=O)OCCN(CCOS(=O)(=O)c2ccc(C)cc2)c2ccc(F)cc2)cc1`, the T/C reads like this: (dose: 2.9 mg/kg/injection, schedule: Q01DX009 (ip), vehicle: saline) 127 % of control; (dose: 4.4 mg/kg/injection, schedule: Q01DX009 (ip), vehicle: saline) 131 % of control; (dose: 6.6 mg/kg/injection, schedule: Q01DX009 (ip), vehicle: saline) 131 % of control; (dose: 10.0 mg/kg/injection, schedule: Q01DX009 (ip), vehicle: saline) 134 and 142 % of control; (dose: 14.0 mg/kg/injection, schedule: Q01DX009 (ip), vehicle: saline) 136 % of control; (dose: 16.0 mg/kg/injection, schedule: Q01DX009 (ip), vehicle: saline) 137 % of control. Also, the T/C runs as follows: (dose: 22.0 mg/kg/injection, schedule: Q01DX009 (ip), vehicle: acetone) 130 % of control; (dose: 23.0 mg/kg/injection, schedule: Q01DX009 (ip), vehicle: other) 126 % of control; (dose: 35.0 mg/kg/injection, schedule: Q01DX009 (ip), vehicle: acetone) 133 % of control; (dose: 35.0 mg/kg/injection, schedule: Q01DX009 (ip), vehicle: other) 126 % of control; (dose: 50.0 mg/kg/injection, schedule: Q01DX009 (ip), vehicle: acetone) 133 % of control; (dose: 50.0 mg/kg/injection, schedule: Q01DX009 (ip), vehicle: saline) 147 % of control. Besides, the T/C was 133 % of control [5 of 6 alive] (dose: 53.0 mg/kg/injection, schedule: Q01DX009 (ip), vehicle: saline) and 137 % of control (dose: 79.0 mg/kg/injection, schedule: Q01DX009 (ip), vehicle: saline). Also, the survivor count (dose: 115.0 mg/kg/injection, schedule: Q01DX009 (ip), vehicle: saline) is reported as 5 of 6; the survivor count (dose: 170.0 mg/kg/injection, schedule: Q01DX009 (ip), vehicle: saline) is 3 of 6; the survivor count (dose: 177.0 mg/kg/injection, schedule: Q01DX009 (ip), vehicle: other) is 6 of 6; the survivor count (dose: 266.0 mg/kg/injection, schedule: Q01DX009 (ip), vehicle: other) is given as 6 of 6; the survivor count (dose: 300.0 mg/kg/injection, schedule: Q01DX009 (ip), vehicle: saline) is listed as 6 of 6; the survivor count (dose: 400.0 mg/kg/injection, schedule: Q01DX009 (ip), vehicle: other) is 0 of 6. In addition, the survivor count (dose: 600.0 mg/kg/injection, schedule: Q01DX009 (ip), vehicle: other) is on record as 5 of 6.
With `O=NN(CCCl)C(=O)Nc1ccc(C(F)(F)F)cc1`, the T/C is, setting by setting: (dose: 4.6 mg/kg/injection, schedule: Q01DX001 (ip), vehicle: carboxymethylcellulose (CMC)) 135 % of control; (dose: 9.37 mg/kg/injection, schedule: Q01DX001 (ip), vehicle: carboxymethylcellulose (CMC)) 141 % of control; (dose: 12.5 mg/kg/injection, schedule: Q01DX001 (ip), vehicle: carboxymethylcellulose (CMC)) 140 % of control; (dose: 18.75 mg/kg/injection, schedule: Q01DX001 (ip), vehicle: carboxymethylcellulose (CMC)) 143 % of control; (dose: 25.0 mg/kg/injection, schedule: Q01DX001 (ip), vehicle: carboxymethylcellulose (CMC)) 141 % of control; (dose: 37.5 mg/kg/injection, schedule: Q01DX001 (ip), vehicle: carboxymethylcellulose (CMC)) 149 % of control. Further, the T/C (dose: 100.0 mg/kg/injection, schedule: Q01DX001 (ip), vehicle: carboxymethylcellulose (CMC)) is 143 % of control. Besides, the survivor count (dose: 75.0 mg/kg/injection, schedule: Q01DX Z (ip), vehicle: carboxymethylcellulose (CMC)) is 6 of 6; the survivor count (dose: 150.0 mg/kg/injection, schedule: Q01DX001 (ip), vehicle: carboxymethylcellulose (CMC)) is listed as 6 of 6; the survivor count (dose: 150.0 mg/kg/injection, schedule: Q01DX Z (ip), vehicle: carboxymethylcellulose (CMC)) was 0 of 6; the survivor count (dose: 200.0 mg/kg/injection, schedule: Q01DX001 (ip), vehicle: carboxymethylcellulose (CMC)) is 2 of 6; the survivor count (dose: 300.0 mg/kg/injection, schedule: Q01DX001 (ip), vehicle: carboxymethylcellulose (CMC)) is recorded as 0 of 6; the survivor count (dose: 400.0 mg/kg/injection, schedule: Q01DX001 (ip), vehicle: carboxymethylcellulose (CMC)) is recorded as 0 of 6. Also, the survivor count (dose: 500.0 mg/kg/injection, schedule: Q01DX001 (ip), vehicle: carboxymethylcellulose (CMC)) is on record as 0 of 6.
As to `CN(C)CCCCC(C#N)(c1ccccc1)c1ccccc1`, the survivor count (dose: 60.0 mg/kg/injection, schedule: Q01DX001 (ip), vehicle: saline) is on record as 1 of 6; the survivor count under setting [2] is listed as 0 of 6; the survivor count under setting [3] is 0 of 6; the survivor count under setting [4] was 0 of 6.
Consider `CSCCC(C)C`, for which the survivor count under setting [1] is recorded as 0 of 6.
For `C#CCOc1ccccc1O`, for the setting “dose: 200.0 mg/kg/injection, schedule: Q01DX009 (ip), vehicle: acetone”, the survivor count is given as 5 of 6.
In the case of `CCOP(=O)(OCC)Oc1ccc(S(C)=O)cc1` (stereo not given), the survivor count by setting is: (dose: 10.0 mg/kg/injection, schedule: Q01DX001 (ip), vehicle: saline) 0 of 6; (dose: 20.0 mg/kg/injection, schedule: Q01DX001 (ip), vehicle: saline) 0 of 6; (dose: 40.0 mg/kg/injection, schedule: Q01DX001 (ip), vehicle: saline) 0 of 6; under setting [2], 0 of 6; (dose: 80.0 mg/kg/injection, schedule: Q01DX001 (ip), vehicle: saline) 0 of 6; under setting [3], 0 of 6. Further, the survivor count under setting [4] is reported as 0 of 6.
